Measured values from patent US20040072746A1, “Inhibitors of monocarboxylate transport” (priority 2001, published 2004).
No constants are given. Whether binding was seen depends on the method and setting. Some results given as binding are weak or reduced against the parent protein; the word gives no strength. Sequences can lack the tags named with a protein.

The chains behind the UniProt entries cited, without tags or fusion partners. Where a name states a change or a piece, a line headed by the entry shows the natural chain unless it says otherwise.
UniProt P22629: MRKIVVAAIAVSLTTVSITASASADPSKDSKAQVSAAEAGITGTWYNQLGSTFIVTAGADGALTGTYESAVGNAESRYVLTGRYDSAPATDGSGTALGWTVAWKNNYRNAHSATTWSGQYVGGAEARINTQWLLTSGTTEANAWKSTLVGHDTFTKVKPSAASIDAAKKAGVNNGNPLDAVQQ

Target: T1, human MCT1 with a Strep Tag at the C-terminus (human) (UniProt P53985)
T1 sequence: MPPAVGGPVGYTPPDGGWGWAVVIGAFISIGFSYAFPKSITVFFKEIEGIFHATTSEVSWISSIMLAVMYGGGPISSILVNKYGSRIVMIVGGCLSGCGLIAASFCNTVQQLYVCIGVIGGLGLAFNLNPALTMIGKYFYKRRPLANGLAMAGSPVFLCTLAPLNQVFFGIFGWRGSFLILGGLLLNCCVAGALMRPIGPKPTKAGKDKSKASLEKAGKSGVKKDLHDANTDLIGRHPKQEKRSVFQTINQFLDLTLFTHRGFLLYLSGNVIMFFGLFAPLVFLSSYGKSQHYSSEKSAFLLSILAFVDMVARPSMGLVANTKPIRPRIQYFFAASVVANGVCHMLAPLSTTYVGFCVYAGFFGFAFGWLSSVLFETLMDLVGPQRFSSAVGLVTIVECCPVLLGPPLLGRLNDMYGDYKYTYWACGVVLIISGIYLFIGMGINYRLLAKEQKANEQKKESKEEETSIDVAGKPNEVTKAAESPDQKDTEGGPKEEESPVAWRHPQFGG
Assay: Western blot of yeast expressing strep tagged MCT1

## streptavidin-horseradish peroxidase conjugate (IBA GmbH) (from UniProt P22629 37-163; P00433 31-338)
  binding: binds
